Experimental data: PMC10667515
Results are given in words; binding and its absence hold for the method and conditions named. Binding seen in cells or lysates may run through a third protein. Some binding calls cover weakened binding; strength is not graded here. For part of these data: Where a sequence is shown, tags or fusion partners need not be part of it. Values belong to the molecule of their own block, whether it stands above or below them.

The chains behind the UniProt entries cited, without tags or fusion partners.
UniProt O14980: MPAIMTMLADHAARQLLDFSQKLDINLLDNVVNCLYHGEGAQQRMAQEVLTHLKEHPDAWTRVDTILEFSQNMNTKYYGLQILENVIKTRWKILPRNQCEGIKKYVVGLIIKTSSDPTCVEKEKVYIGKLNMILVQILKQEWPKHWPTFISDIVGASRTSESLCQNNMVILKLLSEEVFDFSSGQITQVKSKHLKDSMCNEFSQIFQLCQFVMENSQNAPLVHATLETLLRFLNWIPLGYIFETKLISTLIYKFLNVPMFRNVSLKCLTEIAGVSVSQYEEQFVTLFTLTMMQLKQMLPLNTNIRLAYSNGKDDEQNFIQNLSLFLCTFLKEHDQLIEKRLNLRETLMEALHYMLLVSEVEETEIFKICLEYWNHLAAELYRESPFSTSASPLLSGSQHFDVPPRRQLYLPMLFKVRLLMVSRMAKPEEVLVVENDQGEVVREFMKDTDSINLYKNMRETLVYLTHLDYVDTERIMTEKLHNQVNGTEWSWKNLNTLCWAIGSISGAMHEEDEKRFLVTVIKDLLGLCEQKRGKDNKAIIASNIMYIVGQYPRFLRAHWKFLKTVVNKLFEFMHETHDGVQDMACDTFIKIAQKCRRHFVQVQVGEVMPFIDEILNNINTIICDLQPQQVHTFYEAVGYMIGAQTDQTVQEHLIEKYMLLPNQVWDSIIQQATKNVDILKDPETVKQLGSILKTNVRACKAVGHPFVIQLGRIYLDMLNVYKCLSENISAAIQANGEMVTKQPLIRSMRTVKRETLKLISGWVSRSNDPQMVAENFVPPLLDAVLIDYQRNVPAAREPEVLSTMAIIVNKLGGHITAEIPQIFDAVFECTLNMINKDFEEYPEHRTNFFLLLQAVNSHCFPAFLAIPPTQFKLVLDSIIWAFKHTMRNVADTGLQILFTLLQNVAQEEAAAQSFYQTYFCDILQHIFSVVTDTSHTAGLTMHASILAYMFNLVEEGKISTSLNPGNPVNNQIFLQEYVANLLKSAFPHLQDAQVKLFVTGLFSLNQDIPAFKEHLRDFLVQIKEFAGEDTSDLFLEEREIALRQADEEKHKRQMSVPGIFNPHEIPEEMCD

Assays:
[1] = target: T1, ID1 (construct not told for the experiment) (UniProt P41134); test: co-IP; truncated mutants of ID1 (I1-I3) against STAT1 and of STAT1 (S1-S6) against ID1 (Supplementary Fig. 5c, d); cells not given; lysate with antibody at 4 °C overnight, Protein A/G Plus-Agarose
T1 sequence: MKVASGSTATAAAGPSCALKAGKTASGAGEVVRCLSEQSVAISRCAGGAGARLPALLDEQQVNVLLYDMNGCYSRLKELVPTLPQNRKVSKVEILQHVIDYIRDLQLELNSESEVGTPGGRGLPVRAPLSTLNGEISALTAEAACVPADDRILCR

[2] = target: STAT1 (construct not told for the experiment) (UniProt P42224); test: proximity ligation; cells not given; with or without ID1 ectopic expression (Fig. 6i); IFN-γ and leptomycin B 100 nM (Fig. 6j); Duolink kit
[3] = target: STAT1 (construct not told for the experiment) (UniProt P42224); test: co-IP; co-IPs among ID1, STAT1 and CRM1 (Supplementary Fig. 5f); cells and constructs not stated
[4] = target: T1, ID1 (construct not told for the experiment); test: as above
[5] = target: STAT1 (construct not told for the experiment) (UniProt P42224); test: co-IP; STAT1 and CRM1 with or without ID1 (Fig. 6h); the legend does not name the method or the cells
[6] = target: T2, ID1 truncated mutant I2 (amino acids 53-104) in pEGFP-C1 (UniProt P41134); test: co-IP; truncated mutants of ID1 (I1-I3) against STAT1 and of STAT1 (S1-S6) against ID1 (Supplementary Fig. 5c, d); cells not given; lysate with antibody at 4 °C overnight, Protein A/G Plus-Agarose
T2 sequence: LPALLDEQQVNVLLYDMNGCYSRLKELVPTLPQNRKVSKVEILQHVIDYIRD

[7] = target: T3, ID1 truncated mutant I1 (amino acids 1-52) in pEGFP-C1 (UniProt P41134); test: as above
T3 sequence: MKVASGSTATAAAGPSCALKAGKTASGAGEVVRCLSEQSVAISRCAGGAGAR

[8] = target: T4, ID1-GFP (full-length ID1 in pEGFP-C1) (UniProt P41134); test: co-IP; HEK 293T cells transfected with STAT1-DDK and ID1-GFP plasmids; lysate with antibody at 4 °C overnight, Protein A/G Plus-Agarose 2 h, immunoblot
T4 sequence: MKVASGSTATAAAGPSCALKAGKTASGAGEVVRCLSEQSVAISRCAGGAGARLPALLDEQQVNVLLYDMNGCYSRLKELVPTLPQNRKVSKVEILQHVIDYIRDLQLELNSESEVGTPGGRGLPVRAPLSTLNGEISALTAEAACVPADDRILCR

[9] = target: T5, STAT1 (construct not told for the experiment), P42224; test: proximity ligation; cells not given; with or without ID1 ectopic expression (Fig. 6i); IFN-γ and leptomycin B 100 nM (Fig. 6j); Duolink kit; conditions: remark: other sources report otherwise
T5 chain: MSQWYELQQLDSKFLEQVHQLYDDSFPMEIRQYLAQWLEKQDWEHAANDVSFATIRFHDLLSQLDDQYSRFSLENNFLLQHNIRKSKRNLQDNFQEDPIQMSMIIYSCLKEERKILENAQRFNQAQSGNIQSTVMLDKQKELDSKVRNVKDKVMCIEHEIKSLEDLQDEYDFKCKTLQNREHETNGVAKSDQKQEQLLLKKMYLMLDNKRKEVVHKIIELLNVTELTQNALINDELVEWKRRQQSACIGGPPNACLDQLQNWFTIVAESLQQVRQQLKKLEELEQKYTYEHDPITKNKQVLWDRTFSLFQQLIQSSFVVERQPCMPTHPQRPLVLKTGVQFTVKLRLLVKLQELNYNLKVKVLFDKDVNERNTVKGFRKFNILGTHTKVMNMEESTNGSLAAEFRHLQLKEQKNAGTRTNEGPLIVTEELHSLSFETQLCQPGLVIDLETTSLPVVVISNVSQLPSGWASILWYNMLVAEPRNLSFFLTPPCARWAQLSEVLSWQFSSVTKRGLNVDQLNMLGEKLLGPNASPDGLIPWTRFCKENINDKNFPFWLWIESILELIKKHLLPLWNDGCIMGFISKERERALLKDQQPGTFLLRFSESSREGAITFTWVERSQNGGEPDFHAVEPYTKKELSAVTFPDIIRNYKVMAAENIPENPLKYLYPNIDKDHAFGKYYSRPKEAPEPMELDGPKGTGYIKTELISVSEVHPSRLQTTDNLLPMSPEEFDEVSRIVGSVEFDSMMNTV

Molecule: Chromosome region maintenance 1 (CRM1) (from UniProt O14980 1-1071)
binding [2]: binds
binding [3]: binds
binding [4]: binds
binding [5]: binds

Molecule: STAT1-DDK (from UniProt P42224 1-750)
binding [8]: binds

B1: STAT1 (construct not told for the experiment), P42224 1-750 (protein)
chain: MSQWYELQQLDSKFLEQVHQLYDDSFPMEIRQYLAQWLEKQDWEHAANDVSFATIRFHDLLSQLDDQYSRFSLENNFLLQHNIRKSKRNLQDNFQEDPIQMSMIIYSCLKEERKILENAQRFNQAQSGNIQSTVMLDKQKELDSKVRNVKDKVMCIEHEIKSLEDLQDEYDFKCKTLQNREHETNGVAKSDQKQEQLLLKKMYLMLDNKRKEVVHKIIELLNVTELTQNALINDELVEWKRRQQSACIGGPPNACLDQLQNWFTIVAESLQQVRQQLKKLEELEQKYTYEHDPITKNKQVLWDRTFSLFQQLIQSSFVVERQPCMPTHPQRPLVLKTGVQFTVKLRLLVKLQELNYNLKVKVLFDKDVNERNTVKGFRKFNILGTHTKVMNMEESTNGSLAAEFRHLQLKEQKNAGTRTNEGPLIVTEELHSLSFETQLCQPGLVIDLETTSLPVVVISNVSQLPSGWASILWYNMLVAEPRNLSFFLTPPCARWAQLSEVLSWQFSSVTKRGLNVDQLNMLGEKLLGPNASPDGLIPWTRFCKENINDKNFPFWLWIESILELIKKHLLPLWNDGCIMGFISKERERALLKDQQPGTFLLRFSESSREGAITFTWVERSQNGGEPDFHAVEPYTKKELSAVTFPDIIRNYKVMAAENIPENPLKYLYPNIDKDHAFGKYYSRPKEAPEPMELDGPKGTGYIKTELISVSEVHPSRLQTTDNLLPMSPEEFDEVSRIVGSVEFDSMMNTV
binding [9]: binds

Results, then the molecule that gave them:

binding [1]: binds
Molecule: STAT1 truncated mutant S5 (amino acids 577-683) in pEGFP-C1 (from UniProt P42224 577-683) (domain or fragment)

binding [1]: binds
Molecule: STAT1 truncated mutant S3 (amino acids 318-488) in pEGFP-C1 (from UniProt P42224 318-488) (domain or fragment)

binding [4]: binds
binding [6]: binds
binding [7]: binds
Molecule: STAT1 (construct not told for the experiment) (from UniProt P42224 1-750)

binding [1]: binds
Molecule: STAT1 truncated mutant S1 (amino acids 1-136) in pEGFP-C1 (from UniProt P42224 1-136) (domain or fragment)
